# Hit rate of the full screen: of about 320,000 compounds, about 22,000 (6.9%) were called active. Inconclusive means that the source gave no clear call. Such entries were picked first, then a sample of the others. The call rests on the fitted dose curve; in most records, active means well fitted inhibition curve with a large enough effect; inconclusive means small, poorly fitted or top-dose-only effect, or another doubt; inactive means no such curve, though single readings can be large or run the other way. Potencies of inconclusive entries are doubtful fits and often do not repeat.
# Experiment: Primary qHTS for delayed death inhibitors of the malarial parasite plastid, 96 hour incubation
# Details: P. falciparum luciferase reporter growth; series mostly up to 28.7 µM; activity change, negative = inhibition: at the top concentration
# Summary of the method: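 Parasite growth measured via integrated firefly luciferase reporter in P. falciparum. Infected erythrocytes at 2% hematocrit, 0.05% parasitemia final were treated 96 hours at 37 C under 5% CO2, and luminescence was read.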
# On the % scale 0 is the no-effect control and ±100 the full control effect; potency means the concentration at half of the fitted maximal effect.
SMILES,Potency,"activity change, negative = inhibition"
CCOC(=O)c1ccc(NC(=O)COc2ccc(S(=O)(=O)N3CCCC3)cc2)cc1,"inconclusive: 10.4 µM [inhibitor, partial curve, poor fit]",
CCN(CC)S(=O)(=O)c1ccc(/C=C/C(=O)O)cc1,,inactive: 2.65%
Cc1ccc(N2CCN(C3=NC(=O)/C(=C\c4cn[nH]c4-c4ccccc4)S3)CC2)cc1,"inconclusive: 10.4 µM [inhibitor, partial curve, poor fit]",
O=C(NNC(=S)Nc1ccccc1Cl)C1CC1,,inactive: 26.3%
COc1ccc(OCC(=O)OCCN(C)C)cc1,"inconclusive: 18.5 µM [inhibitor, single point]",
Cc1ccc(S(=O)(=O)N2[C@@H](c3ccccc3F)C(C(=O)O)=CC[C@H]2c2ccc(Cl)c(Cl)c2)cc1,active: 11.7 µM,
CCOc1ccc2c(c1)C(N(CCN1CCOCC1)C(=S)Nc1ccccc1OC)CC(C)(C)O2 (stereo not drawn),active: 10.4 µM,
O=c1nc2c(-c3ccccc3F)n[nH]n2c2ccccc12,"inconclusive: 4.15 µM [inhibitor, single point]",
O=C(c1cc(=O)c2ccccc2o1)N1CCN(c2ccccc2)CC1,,inactive: -6.9%
CC1CN(c2ccc([N+](=O)[O-])cc2Cl)CCN1 (stereo not drawn),,inactive: 16.7%
CC(NC(=O)CN1CCN(Cc2cccc(F)c2)CC1)c1ccccc1 (stereo not drawn),"inconclusive: 10.4 µM [inhibitor, partial curve]",
Cc1ccccc1OCCn1c(=O)sc2ccccc21,,inactive: 1.15%
Cc1ccc(COC(=O)NCc2cccnc2)cc1,"inconclusive: 18.5 µM [inhibitor, single point]",
Cc1ccccc1C(=O)O/N=C(\N)c1ccc([N+](=O)[O-])cc1,"inconclusive: 18.5 µM [inhibitor, single point]",
COc1ccc(C)cc1NC(=O)c1ccccc1NS(=O)(=O)c1ccc(Cl)s1,"inconclusive: 5.22 µM [inhibitor, partial curve, poor fit]",
CC(C)Oc1ccc(S(=O)(=O)N2CCOCC2)cc1NC(=O)C1=NN(c2ccccc2)C(=O)CC1,active: 1.65 µM,
COc1ccc2c(CC(=O)N3CCN(S(=O)(=O)c4ccc(F)cc4)CC3)coc2c1,"inconclusive: 16.5 µM [inhibitor, single point]",
CCn1c(CSc2nc(C)cs2)nc2cc(S(=O)(=O)N(C)C)ccc21,"inconclusive: 18.5 µM [inhibitor, single point]",
Cn1c(C(=O)OC(C(=O)NC(C)(C)C)c2cccnc2)cc2sccc21 (stereo not drawn),,inactive: 24.8%
C/C(CCN1CCCCc2nc(C)c(C)cc21)=N\O[C@@H](C)c1cn([C@H](CO)Cc2ccccc2)nn1,"inconclusive: 18.5 µM [inhibitor, single point]",
O=C(NC(=S)Nc1ccc(F)c([N+](=O)[O-])c1)c1ccccc1F,,inactive: 18.1%
CCCN(CC1COc2ccccc2O1)C(=S)Nc1ccc(C)cc1 (stereo not drawn),"inconclusive: 10.4 µM [inhibitor, single point]",
CCOC(=O)c1nn(-c2ccc3c(c2)OCO3)cc1O,,inactive: 63.3%
CCOC(=O)Cc1cnc(NC(=O)Cn2nnc(-c3ccc(OCC)cc3)n2)s1,active: 6.57 µM,
CC(=O)NCCC(=O)Nc1nc2c(ccc3ccccc32)s1,,inactive: 20.3%

# Not a retest: an excerpt of the list.
SMILES,Potency,"activity change, negative = inhibition"
COc1ccc(OCC(=O)OCCN(C)C)cc1,"inconclusive: 18.5 µM [inhibitor, single point]",
Cc1ccc(S(=O)(=O)N2[C@@H](c3ccccc3F)C(C(=O)O)=CC[C@H]2c2ccc(Cl)c(Cl)c2)cc1,active: 11.7 µM,
CCOc1ccc2c(c1)C(N(CCN1CCOCC1)C(=S)Nc1ccccc1OC)CC(C)(C)O2 (stereo not drawn),active: 10.4 µM,
O=c1nc2c(-c3ccccc3F)n[nH]n2c2ccccc12,"inconclusive: 4.15 µM [inhibitor, single point]",

# Additional results:

SMILES,Potency,"activity change, negative = inhibition"
O=C(O)c1ccc(CSc2nnc(-c3ccccc3Br)o2)cc1,,inactive: 10.6%
C/C(=N\OC(=O)c1ccc(OC(C)C)cc1)c1ccc(C)c(C)c1,"inconclusive: 18.5 µM [inhibitor, single point]",
COC(=O)c1sc2ccccc2c1-n1cccc1C(=O)C(=O)Nc1ccccc1,,inactive: 118%
O=C(N/C(=C\c1ccc([N+](=O)[O-])cc1)C(=O)N1CCCCC1)c1ccccc1Br,"inconclusive: 10.4 µM [inhibitor, partial curve]",
CC1=NN(c2ccccc2)C(=O)/C1=C/C=C/c1ccc(N(C)C)cc1,"inconclusive: 10.4 µM [inhibitor, single point]",
O=C(COc1ccccc1F)N1CCN(CCN2C(=O)c3cccc4cccc(c34)C2=O)CC1,"inconclusive: 10.4 µM [inhibitor, single point]",
Cc1ccc(OCCCN2CCOCC2)cc1,"inconclusive: 18.5 µM [inhibitor, single point]",
CCOc1ccccc1C(=O)Nc1cnn(Cc2ccc(F)cc2)c1,,inactive: -27.9%
CCOC(=O)c1c(NC(=O)C2CC=CCC2C(=O)O)sc(C)c1CC (stereo not drawn),"inconclusive: 7.38 µM [inhibitor, partial curve, poor fit]",
O=C(N/N=C/C(Br)=C/c1ccccc1)c1ccncc1,active: 14.7 µM,
CCCCn1c(N)c(N(CCOC)C(=O)c2cc(S(=O)(=O)N3CCCCC3)ccc2C)c(=O)[nH]c1=O,,inactive: 5.06%
COc1ccc(Cl)cc1NC(=O)CSc1nnc(C)c(=O)n1N,,inactive: 16.2%
COC(=O)/C(=C1/Oc2ccc(C(C)(C)C)cc2S1)C(F)(F)F,"inconclusive: 11.7 µM [inhibitor, partial curve, poor fit]",
COC(=O)CCS(=O)(=O)c1ccc(Cl)cc1,"inconclusive: 2.33 µM [inhibitor, partial curve, poor fit]",
C[C@@H](C(=O)Nc1ccc2ccccc2c1)[C@H]1C[C@]1(C)[C@H](NS(=O)(=O)c1ccccc1)c1ccccc1,"inconclusive: 1.31 µM [inhibitor, full curve, poor fit]",
CCCC(c1nnnn1CS(=O)(=O)c1ccc(C)cc1)N1CCN(c2ccc(F)cc2)CC1 (stereo not drawn),"inconclusive: 18.5 µM [inhibitor, single point]",
CCOC(=O)c1snc2c(=O)[nH]cnc12,,inactive: -0.797%
Cc1ccc(S(=O)(=O)N2CC2(C)CCl)cc1 (stereo not drawn),"inconclusive: 4.15 µM [inhibitor, partial curve]",
CCN(CC)c1ccc(NC(=O)c2c(OC)cccc2OC)c(C)c1,,inactive: -19.2%
NC(=O)[C@H]1CC2(CC(c3cccc(NC(=O)CC(c4ccccc4)c4ccccc4)c3)=NO2)CN1C(=O)CC(c1ccccc1)c1ccccc1 (stereo partly drawn),"inconclusive: 13.1 µM [inhibitor, partial curve, poor fit]",
COc1ccccc1CP(=O)(c1ccccc1)c1ccccc1,,inactive: 7.67%
CC1(C)Cc2c(c(N3CCOCC3)nc3sc(C(=O)N4CCCCC4)c(N)c23)CO1,"inconclusive: 9.28 µM [inhibitor, partial curve, poor fit]",
O=C(Cn1cnc2c(oc3ccccc32)c1=O)N1CCCc2ccccc21,"inconclusive: 1.65 µM [inhibitor, full curve]",
Cc1ccc(S(=O)(=O)N2CCCCC2)cc1NC(=O)C1CCCO1 (stereo not drawn),,inactive: -4.1%
COc1ccccc1NC(=S)NNC(=O)c1ccccc1Br,,inactive: 45.5%

SMILES,Potency,"activity change, negative = inhibition"
CC(Oc1ccc(Cl)cc1Cl)C(=O)NNC(=O)c1ccncc1 (stereo not drawn),,inactive: 24.3%
COC(=O)c1c(NC(=S)Nc2ccc(C(=O)N3CCOCC3)cc2)sc2c1CCC2,,inactive: 11.7%
Cc1cccc(NS(=O)(=O)c2nnc(NC(=O)C3CCCCC3)s2)c1,,inactive: -6.54%
CCOc1ccc(/C=C/C(=O)OCC(=O)c2ccccc2OC)cc1OC,"inconclusive: 9.28 µM [inhibitor, partial curve, poor fit]",
Cc1ccc(NC(=O)Nc2cccnc2)cc1Cl,"inconclusive: 2.08 µM [inhibitor, full curve]",
O=C(CCCN1C(=O)/C(=C\c2cccc(Br)c2)SC1=S)Nc1cccnc1,,inactive: 8.4%
O=C(CCCc1ccccc1)N=C1SC2CS(=O)(=O)CC2N1c1ccccc1 (stereo not drawn),,inactive: 3.97%
COc1cccc(CN2CCN(C(=S)NCc3ccc(Cl)cc3)CC2)c1,,inactive: 8.96%
CCc1ccc(C(=O)COC(=O)C2CCN(c3ccc(C(F)(F)F)cn3)CC2)cc1,,inactive: -0.423%
CCN(CC(=O)NCc1cccs1)C(=O)COc1cccc(C(F)(F)F)c1,"inconclusive: 16.5 µM [inhibitor, partial curve, poor fit]",
Cc1c(N)c(C(C)(C)C)cc(C(C)(C)C)c1[N+](=O)[O-],,inactive: -15.1%
NC(N)=N/N=C/c1ccc(OCc2ccccc2Cl)cc1,active: 0.131 µM,
O=P1(Oc2ccccc2)CC=C[C@H](COCc2ccccc2)O1 (stereo partly drawn),"inconclusive: 9.28 µM [inhibitor, partial curve]",
COc1ccc(S(=O)(=O)N2CCN(C(=O)[C@H](Cc3ccccc3)NC(=O)c3ccco3)CC2)cc1,"inconclusive: 1.04 µM [inhibitor, partial curve, poor fit]",
CCOCCOc1nc(C)cc(C)c1S(=O)(=O)c1ccccc1C,"inconclusive: 11.7 µM [inhibitor, partial curve]",
CC(=O)c1ccc(N(C(=O)CS(=O)CC(=O)Nc2ccc(F)cc2)C(C(=O)NC2CCCCC2)c2cccs2)cc1 (stereo not drawn),"inconclusive: 18.5 µM [inhibitor, single point]",
CN(C)/C=C/C(=O)c1ccc(Cl)s1,"inconclusive: 4.15 µM [inhibitor, single point]",
Cc1ccc(S(=O)(=O)N(CCCN2CCCC2=O)Cc2cc3c(C)ccc(C)c3[nH]c2=O)cc1,"inconclusive: 8.28 µM [inhibitor, single point]",
CCOC(=O)C1CCN(C(=O)c2cc3c(s2)-c2ccccc2OC3)CC1,,inactive: -12.8%
CCCCOc1ccc(C(=O)NC(=S)Nc2ccc(CN3CCOCC3)cc2)cc1,"inconclusive: 2.08 µM [inhibitor, partial curve]",
N#C/C(=C\c1ccc(OC(=O)c2ccc(Br)s2)cc1)c1nc2ccccc2[nH]1,"inconclusive: 5.22 µM [inhibitor, partial curve]",
CCCC(=O)NC(c1ccc(N(C)C)cc1)c1c(O)ccc2ccccc12 (stereo not drawn),active: 11.7 µM,
CCOC(=O)C1(Cc2ccccc2C(F)(F)F)CCN(C2CCN(C(C)=O)CC2)CC1,"inconclusive: 18.5 µM [inhibitor, single point]",
